PubChem BioAssay AID504793, Drosophila RNAi Screening Center, 2011
Purpose: 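Whole-genome screen for parts of the DNA damage checkpoint at G2/M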 (primary screen). Cells: Drosophila S2R+ cells. Reagent: long dsRNA against Drosophila genes, about 0.25 µg dsRNA per well. Time to read-out: 4 days of dsRNA, then 4 hours of drug before read-out. Conditions: doxorubicin 0.5 µM for 4 hours to cause double-strand breaks, in cells also given a low, harmless dose of dsRNA against nbs to sensitise the assay. Measurement: 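Per-well count of mitotic cells stained for phospho-histone H3 after doxorubicin exposure, used as mitotic index; counts are raw and not normalised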. Direction: mitotic cells: higher = more cells in mitosis, weaker G2 arrest. Active means: 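Genes are called active only when high mitotic counts were reproduced with independent dsRNAs and mitosis was checked for delay without damage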. Calls: active = confirmed in follow-up tests; inactive = not confirmed.
The deposit covers about 23,000 reagents; this is a random part of those that have a named target and a result. In the full data, 62 (0.27%) are marked active. 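Calls come from follow-up tests whose scores are not deposited, so confirmed genes may have low counts here; counts are not normalised per plate.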 Raw values are not corrected between plates. Reagents against one gene are numbered here. A plus sign joins genes that one reagent is predicted to hit.

target gene | dsRNA no. | mitotic cells, replicate 1 | Outcome
ben | 1 | 7 | inactive
ben | 2 | 9 | inactive
ben | 3 | 10 | inactive
Prat2 | 1 | 5 | inactive
Hmu | 1 | 15 | inactive
Hmu | 2 | 6 | inactive
CG17359 | 1 | 6 | inactive
CG17359 | 2 | 5 | inactive
Ugt37E1 | 1 | 6 | inactive
Ugt37E1 | 2 | 4 | inactive
CG10274 | 1 | 7 | inactive
CG10274 | 2 | 4 | inactive
Ir40a | 1 | 6 | inactive
Ir40a | 2 | 10 | inactive
Lcp9 | 1 | 9 | inactive
CycC | 1 | 26 | active
CR32028 (retired record) | 1 | 10 | inactive
CR32028 (retired record) | 2 | 11 | inactive
Mst84Dc | 1 | 6 | inactive
COX7A | 1 | 5 | inactive
Unc-115b + p24-2 | 1 | 12 | inactive
fd19B | 1 | 6 | inactive
fd19B | 2 | 4 | inactive
CG8401 | 1 | 4 | inactive
mbc | 1 | 8 | inactive
CG6220 | 1 | 8 | inactive
CG34112 | 1 | 3 | inactive
Rab27 | 1 | 7 | inactive
AstC-R2 | 1 | 4 | inactive
CG33090 | 1 | 8 | inactive
CG33090 | 2 | 9 | inactive
mmd | 1 | 9 | inactive
mmd | 2 | 13 | inactive
mmd | 3 | 13 | inactive
CG31760 | 1 | 4 | inactive
CG31760 | 2 | 2 | inactive
CG14696 | 1 | 1 | inactive
Hers | 1 | 3 | inactive
Hers | 2 | 4 | inactive
Hers | 3 | 6 | inactive
CG13561 | 1 | 8 | inactive
CG9467 | 1 | 8 | inactive
Xpac | 1 | 13 | inactive
Xpac | 2 | 4 | inactive
Efhc1.2 | 1 | 3 | inactive
Polr3B | 1 | 11 | inactive
CG3448 | 1 | 4 | inactive
CG3448 | 2 | 10 | inactive
GABA-B-R3 | 1 | 4 | inactive
GABA-B-R3 | 2 | 4 | inactive
Trxr1 | 1 | 11 | inactive
Trxr1 | 2 | 10 | inactive
Trxr1 | 3 | 47 | inactive
ru | 1 | 3 | inactive
ru | 2 | 7 | inactive
SamDC | 1 | 4 | inactive
CG13062 | 1 | 7 | inactive
CG13062 | 2 | 2 | inactive
CG8003 | 1 | 6 | inactive
CG34348 | 1 | 4 | inactive
CG34348 | 2 | 10 | inactive
Tektin-A | 1 | 5 | inactive
Gr98d | 1 | 18 | inactive
Gr98d | 2 | 7 | inactive
cag | 1 | 3 | inactive
cag | 2 | 6 | inactive
CG6216 | 1 | 8 | inactive
CG6216 | 2 | 9 | inactive
TotC | 1 | 8 | inactive
Or94a | 1 | 6 | inactive
CG14316 | 1 | 9 | inactive
modSP | 1 | 3 | inactive
modSP | 2 | 1 | inactive
modSP | 3 | 12 | inactive
CG5171 | 1 | 9 | inactive
CG5171 | 2 | 7 | inactive
CG10710 | 1 | 5 | inactive
CAH15 | 1 | 3 | inactive
CAH15 | 2 | 6 | inactive
Nrx-1 | 1 | 13 | inactive
aust | 1 | 6 | inactive
aust | 2 | 5 | inactive
CG33223 + CG32713 | 1 | 4 | inactive
CG16898 | 1 | 5 | inactive
CG16898 | 2 | 4 | inactive
CG4250 | 1 | 2 | inactive
CG16779 | 1 | 1 | inactive
CG6481 | 1 | 16 | inactive
CG13857 | 1 | 6 | inactive
btsz | 1 | 7 | inactive
lace | 1 | 11 | inactive
mi | 1 | 13 | inactive
mi | 2 | 4 | inactive
CG34283 | 1 | 13 | inactive
CG12828 | 1 | 2 | inactive
Nacalpha | 1 | 2 | inactive
Nacalpha | 2 | 8 | inactive
Gr93d | 1 | 10 | inactive
nanos | 1 | 5 | inactive
nanos | 2 | 8 | inactive
CG15710 | 1 | 6 | inactive
RhoGAP15B | 1 | 5 | inactive
RhoGAP15B | 2 | 7 | inactive
CG33252 | 1 | 10 | inactive
CG14183 | 1 | 1 | inactive
COX4L | 1 | 8 | inactive
Elp4 | 1 | 10 | inactive
DIP-beta | 1 | 7 | inactive
DIP-beta | 2 | 4 | inactive
DIP-beta | 3 | 12 | inactive

Records above whose gene name starts with R or r:
target gene | dsRNA no. | mitotic cells, replicate 1 | Outcome
Rab27 | 1 | 7 | inactive
ru | 1 | 3 | inactive
ru | 2 | 7 | inactive
RhoGAP15B | 1 | 5 | inactive
RhoGAP15B | 2 | 7 | inactive
